These are yes or no findings as the source states them, for the method shown. For part of these data: In cells and extracts the contact can be indirect. Some results given as binding are weak or reduced against the parent protein; the word gives no strength. For part of these data: Tags and fused reporters may be left off the sequences shown.
Assays:
[1] = target: T1, Myc-Mst1 N-terminal kinase domain (deletion mutant in pCS26MT, 6x Myc tag) (UniProt Q13043); experiment: co-IP; HEK293T cells co-transfected with tagged Mst1 and GAPDH constructs; lysis in 1% Nonidet P-40, 150 mmol/L NaCl, 50 mmol/L Tris pH 8, 100 umol/L EDTA; precipitation with anti-FLAG or anti-Myc antibody, blots with anti-Myc and anti-FLAG; in one panel cells treated with etoposide or TNF for 6 hrs (interaction increased)
T1 sequence: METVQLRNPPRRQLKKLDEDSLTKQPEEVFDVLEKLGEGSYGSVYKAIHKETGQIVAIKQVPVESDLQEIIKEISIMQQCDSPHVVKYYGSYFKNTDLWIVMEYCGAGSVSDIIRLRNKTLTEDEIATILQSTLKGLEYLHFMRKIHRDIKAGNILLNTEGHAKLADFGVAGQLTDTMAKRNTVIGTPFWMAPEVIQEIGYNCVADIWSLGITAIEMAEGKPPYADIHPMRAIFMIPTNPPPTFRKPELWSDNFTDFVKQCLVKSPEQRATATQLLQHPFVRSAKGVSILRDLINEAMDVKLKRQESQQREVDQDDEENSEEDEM

Amino acid sequences for entries named in this document (tags omitted). A change or cut given only in a name is not applied to a line headed by its entry.
UniProt P04406: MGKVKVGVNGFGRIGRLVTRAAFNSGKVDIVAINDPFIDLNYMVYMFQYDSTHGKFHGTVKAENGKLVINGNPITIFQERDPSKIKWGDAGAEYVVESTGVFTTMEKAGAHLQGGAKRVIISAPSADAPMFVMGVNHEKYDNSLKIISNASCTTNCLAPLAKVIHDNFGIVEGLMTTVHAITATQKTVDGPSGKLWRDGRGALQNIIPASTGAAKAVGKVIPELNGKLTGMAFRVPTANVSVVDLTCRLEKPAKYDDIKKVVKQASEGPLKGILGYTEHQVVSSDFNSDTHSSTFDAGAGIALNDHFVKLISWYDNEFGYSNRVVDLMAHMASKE

Myc-tagged Mst1 = Myc-tagged Mst1 (UniProt Q13043); experiment: as above
[2] = target: T2, human dominant-negative Mst1 (K59R), yeast two-hybrid bait (human) (UniProt Q13043); experiment: two-hybrid; … GAL4 yeast 2-hybrid system 3 in AH109 yeast; human DN-Mst1 (K59R) as bait, human heart cDNA library as prey; selection medium and beta-galactosidase filter assays
T2 sequence: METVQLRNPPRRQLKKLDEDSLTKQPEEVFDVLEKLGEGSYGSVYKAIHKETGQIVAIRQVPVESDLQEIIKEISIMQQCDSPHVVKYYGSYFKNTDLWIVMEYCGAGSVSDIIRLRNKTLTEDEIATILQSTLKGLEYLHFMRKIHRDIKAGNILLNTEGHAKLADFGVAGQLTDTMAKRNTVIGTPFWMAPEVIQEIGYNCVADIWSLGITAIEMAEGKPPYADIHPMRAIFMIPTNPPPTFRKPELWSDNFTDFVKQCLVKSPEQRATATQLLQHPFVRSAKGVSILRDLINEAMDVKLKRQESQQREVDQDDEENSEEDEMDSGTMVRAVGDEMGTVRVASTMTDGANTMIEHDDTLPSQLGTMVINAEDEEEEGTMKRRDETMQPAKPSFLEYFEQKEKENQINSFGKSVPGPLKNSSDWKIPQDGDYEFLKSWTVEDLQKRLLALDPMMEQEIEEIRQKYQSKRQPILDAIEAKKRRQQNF

Substance	binding [1]	binding (Myc-tagged Mst1)	binding [2]
FLAG-tagged GAPDH (from UniProt P04406 1-335) (enzyme)	binds	binds	–
C-terminal domain (aa 164-335) of GAPDH, two-hybrid library clone (from UniProt P04406 164-335) (domain or fragment)	–	–	binds
